Test results published in patent publication USRE39616E1, “Aminoindan derivatives” (priority 1996, dated 2007).
The match of structure and compound is tentative.

Chains of the proteins cited; added tags and fusions are not shown. Residues count along the entry.
UniProt P21396, whole entry: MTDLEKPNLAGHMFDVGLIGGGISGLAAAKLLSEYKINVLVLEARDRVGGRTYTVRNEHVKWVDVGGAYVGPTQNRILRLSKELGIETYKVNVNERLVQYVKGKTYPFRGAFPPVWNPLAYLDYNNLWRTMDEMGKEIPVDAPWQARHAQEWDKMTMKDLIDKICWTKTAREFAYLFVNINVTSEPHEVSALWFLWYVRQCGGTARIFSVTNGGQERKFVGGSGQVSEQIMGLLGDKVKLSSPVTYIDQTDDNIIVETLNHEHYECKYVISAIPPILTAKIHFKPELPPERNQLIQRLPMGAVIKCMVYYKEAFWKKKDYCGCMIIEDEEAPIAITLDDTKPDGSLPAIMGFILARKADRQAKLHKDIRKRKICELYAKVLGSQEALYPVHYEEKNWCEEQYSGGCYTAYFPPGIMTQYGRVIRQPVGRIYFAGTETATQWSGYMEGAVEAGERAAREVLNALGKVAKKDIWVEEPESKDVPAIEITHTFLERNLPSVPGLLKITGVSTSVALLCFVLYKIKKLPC
UniProt P19643, whole entry: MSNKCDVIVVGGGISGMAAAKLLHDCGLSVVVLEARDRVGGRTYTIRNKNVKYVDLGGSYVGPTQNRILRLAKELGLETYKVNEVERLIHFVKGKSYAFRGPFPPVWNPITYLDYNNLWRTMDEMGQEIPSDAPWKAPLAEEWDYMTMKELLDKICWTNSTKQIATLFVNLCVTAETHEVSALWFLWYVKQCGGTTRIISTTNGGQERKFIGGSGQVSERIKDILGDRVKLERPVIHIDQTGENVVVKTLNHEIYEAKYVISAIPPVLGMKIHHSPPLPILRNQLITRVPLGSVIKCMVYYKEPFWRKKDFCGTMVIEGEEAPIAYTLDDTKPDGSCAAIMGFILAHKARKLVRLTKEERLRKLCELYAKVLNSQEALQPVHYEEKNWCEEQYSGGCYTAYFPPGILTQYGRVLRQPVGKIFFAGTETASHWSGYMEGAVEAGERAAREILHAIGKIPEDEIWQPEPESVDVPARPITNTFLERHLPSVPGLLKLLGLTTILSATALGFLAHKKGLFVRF
UniProt Q64133, whole entry: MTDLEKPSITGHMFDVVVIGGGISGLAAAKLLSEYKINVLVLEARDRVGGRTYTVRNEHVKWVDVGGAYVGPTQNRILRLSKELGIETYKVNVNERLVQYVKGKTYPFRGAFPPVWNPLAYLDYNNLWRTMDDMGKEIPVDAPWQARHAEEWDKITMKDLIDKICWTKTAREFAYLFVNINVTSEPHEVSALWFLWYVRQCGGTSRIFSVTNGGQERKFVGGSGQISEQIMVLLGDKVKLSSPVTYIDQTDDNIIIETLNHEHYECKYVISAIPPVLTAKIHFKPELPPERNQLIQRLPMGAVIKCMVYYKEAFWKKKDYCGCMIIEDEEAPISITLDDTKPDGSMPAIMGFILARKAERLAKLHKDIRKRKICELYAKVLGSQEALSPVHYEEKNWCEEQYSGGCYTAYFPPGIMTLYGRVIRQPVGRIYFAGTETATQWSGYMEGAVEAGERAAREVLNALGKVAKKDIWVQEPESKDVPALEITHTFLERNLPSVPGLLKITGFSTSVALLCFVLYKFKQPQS
UniProt Q8BW75, whole entry: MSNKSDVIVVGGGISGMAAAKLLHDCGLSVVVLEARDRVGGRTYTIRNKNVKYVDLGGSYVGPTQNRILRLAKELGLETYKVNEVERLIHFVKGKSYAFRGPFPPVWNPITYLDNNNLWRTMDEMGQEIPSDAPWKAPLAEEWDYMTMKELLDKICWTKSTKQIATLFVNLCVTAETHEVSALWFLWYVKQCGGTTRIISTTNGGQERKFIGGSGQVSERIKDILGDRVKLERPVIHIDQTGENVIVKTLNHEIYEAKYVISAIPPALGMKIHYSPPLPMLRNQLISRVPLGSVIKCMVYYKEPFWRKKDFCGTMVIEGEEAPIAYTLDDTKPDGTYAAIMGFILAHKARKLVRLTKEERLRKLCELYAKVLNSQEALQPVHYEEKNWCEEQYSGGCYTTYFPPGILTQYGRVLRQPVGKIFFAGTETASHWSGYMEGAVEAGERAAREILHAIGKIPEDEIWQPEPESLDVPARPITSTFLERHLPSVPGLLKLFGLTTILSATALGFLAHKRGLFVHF
UniProt P22303, 32-617 isoform 2 limits assumed: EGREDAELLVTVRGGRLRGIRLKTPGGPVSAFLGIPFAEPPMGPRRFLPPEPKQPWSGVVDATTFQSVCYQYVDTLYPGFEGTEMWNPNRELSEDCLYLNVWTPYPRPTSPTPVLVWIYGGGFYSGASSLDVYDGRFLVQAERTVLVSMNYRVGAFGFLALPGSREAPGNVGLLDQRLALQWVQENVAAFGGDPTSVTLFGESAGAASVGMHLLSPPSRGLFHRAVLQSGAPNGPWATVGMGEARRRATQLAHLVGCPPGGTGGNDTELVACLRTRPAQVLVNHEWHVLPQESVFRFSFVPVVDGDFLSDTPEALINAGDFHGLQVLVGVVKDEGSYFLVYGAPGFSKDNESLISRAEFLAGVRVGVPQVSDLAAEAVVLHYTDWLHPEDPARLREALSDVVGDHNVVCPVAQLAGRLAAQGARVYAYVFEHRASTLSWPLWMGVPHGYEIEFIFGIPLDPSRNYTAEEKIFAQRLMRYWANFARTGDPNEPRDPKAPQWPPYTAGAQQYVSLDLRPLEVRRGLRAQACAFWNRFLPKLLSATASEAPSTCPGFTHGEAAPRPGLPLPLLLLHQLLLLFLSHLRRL
UniProt P21836, 32-614 limits assumed: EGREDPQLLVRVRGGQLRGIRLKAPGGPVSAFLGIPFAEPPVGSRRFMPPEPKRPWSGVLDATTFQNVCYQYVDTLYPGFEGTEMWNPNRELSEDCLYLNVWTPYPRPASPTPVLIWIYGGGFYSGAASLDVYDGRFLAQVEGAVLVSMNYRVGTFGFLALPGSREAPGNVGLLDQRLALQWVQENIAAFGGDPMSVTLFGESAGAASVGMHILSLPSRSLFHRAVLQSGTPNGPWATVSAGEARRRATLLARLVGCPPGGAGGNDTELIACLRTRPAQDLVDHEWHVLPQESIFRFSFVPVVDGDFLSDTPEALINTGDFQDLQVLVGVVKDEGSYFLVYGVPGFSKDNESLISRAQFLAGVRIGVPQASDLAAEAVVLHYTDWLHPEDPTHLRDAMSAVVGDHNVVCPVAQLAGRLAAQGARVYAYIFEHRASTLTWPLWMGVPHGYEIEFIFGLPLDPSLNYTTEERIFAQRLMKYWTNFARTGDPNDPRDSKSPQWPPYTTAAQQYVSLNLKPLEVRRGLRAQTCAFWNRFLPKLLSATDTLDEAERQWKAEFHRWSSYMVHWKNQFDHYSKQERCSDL

Legend:
[1] = target: MAO-A (Rattus norvegicus, UniProt P21396); test: Inhibition of MAO activity in vitro, 5-HT as substrate; format: biochemical; conditions: read-out: MAO-A Inhibition In vitro IC50; rat brain homogenate, 5-HT substrate; tested form: HCl
[2] = target: MAO-B (Rattus norvegicus, UniProt P19643); test: Inhibition of MAO activity in vitro, PEA as substrate; format: biochemical; conditions: read-out: MAO-B Inhibition In vitro IC50, rat brain homogenate, tested form: HCl
[3] = target: MAO-A (Mus musculus, UniProt Q64133); test: Inhibition of MAO activity ex vivo (brain); format: in vivo; conditions: mice, brain tissue; tested form: HCl
[4] = target: MAO-B (Mus musculus, UniProt Q8BW75); test: Inhibition of MAO activity ex vivo (brain); format: in vivo; conditions: mice, brain tissue; tested form: HCl
[5] = target: Human erythrocyte acetylcholinesterase (Homo sapiens, UniProt P22303); conditions: read-out: AChE Inhibition In vitro IC50; tested form: HCl
[6] = target: whole brain AChE (Mus musculus, UniProt P21836); conditions: mice, at peak of activity, tested form: HCl

For `C#CC(C)NC1CCc2ccc(OC(=O)N(C)C)cc21` (stereo not drawn), the IC50 [1] was 1000 µM, the IC50 [2] was over 1000 µM and the “MAO-A Inhibition Ex vivo ED50” value [3] was over 120 µmol/kg. For the same compound, the “MAO-B Inhibition Ex vivo ED50” value [4] was over 120 µmol/kg, the IC50 [5] was 1.9 µM and the “AChE Inhibition Ex vivo ED50 (AC)” value [6] was 13.2 µmol/kg.
